Results are given in words; binding and its absence hold for the method and conditions named. In cells and extracts the contact can be indirect. Some binding calls cover weakened binding; strength is not graded here. For some of these results: Sequences can lack the tags named with a protein.
Assays:
Myc/DDK tagged FBXO32 = molecular target: T1, Myc/DDK tagged FBXO32 (UniProt Q969P5); assay: co-IP; immunoprecipitation with anti-DDK from SKmel28 cells transduced with Myc/DDK-tagged FBXO32 vector, western blot; control cells without tagged FBXO32
T1 sequence: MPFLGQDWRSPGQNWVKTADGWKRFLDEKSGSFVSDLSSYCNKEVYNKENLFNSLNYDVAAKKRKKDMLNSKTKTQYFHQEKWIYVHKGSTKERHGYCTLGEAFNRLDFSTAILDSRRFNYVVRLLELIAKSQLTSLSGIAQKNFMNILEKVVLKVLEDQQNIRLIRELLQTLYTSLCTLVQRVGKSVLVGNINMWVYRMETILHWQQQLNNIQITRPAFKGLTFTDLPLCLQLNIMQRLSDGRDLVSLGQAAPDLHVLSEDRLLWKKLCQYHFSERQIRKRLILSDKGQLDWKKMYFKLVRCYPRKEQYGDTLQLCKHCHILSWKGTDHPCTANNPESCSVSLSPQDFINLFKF

By UniProt entry, the sequences of proteins in these tests, tags left out.
UniProt P51532: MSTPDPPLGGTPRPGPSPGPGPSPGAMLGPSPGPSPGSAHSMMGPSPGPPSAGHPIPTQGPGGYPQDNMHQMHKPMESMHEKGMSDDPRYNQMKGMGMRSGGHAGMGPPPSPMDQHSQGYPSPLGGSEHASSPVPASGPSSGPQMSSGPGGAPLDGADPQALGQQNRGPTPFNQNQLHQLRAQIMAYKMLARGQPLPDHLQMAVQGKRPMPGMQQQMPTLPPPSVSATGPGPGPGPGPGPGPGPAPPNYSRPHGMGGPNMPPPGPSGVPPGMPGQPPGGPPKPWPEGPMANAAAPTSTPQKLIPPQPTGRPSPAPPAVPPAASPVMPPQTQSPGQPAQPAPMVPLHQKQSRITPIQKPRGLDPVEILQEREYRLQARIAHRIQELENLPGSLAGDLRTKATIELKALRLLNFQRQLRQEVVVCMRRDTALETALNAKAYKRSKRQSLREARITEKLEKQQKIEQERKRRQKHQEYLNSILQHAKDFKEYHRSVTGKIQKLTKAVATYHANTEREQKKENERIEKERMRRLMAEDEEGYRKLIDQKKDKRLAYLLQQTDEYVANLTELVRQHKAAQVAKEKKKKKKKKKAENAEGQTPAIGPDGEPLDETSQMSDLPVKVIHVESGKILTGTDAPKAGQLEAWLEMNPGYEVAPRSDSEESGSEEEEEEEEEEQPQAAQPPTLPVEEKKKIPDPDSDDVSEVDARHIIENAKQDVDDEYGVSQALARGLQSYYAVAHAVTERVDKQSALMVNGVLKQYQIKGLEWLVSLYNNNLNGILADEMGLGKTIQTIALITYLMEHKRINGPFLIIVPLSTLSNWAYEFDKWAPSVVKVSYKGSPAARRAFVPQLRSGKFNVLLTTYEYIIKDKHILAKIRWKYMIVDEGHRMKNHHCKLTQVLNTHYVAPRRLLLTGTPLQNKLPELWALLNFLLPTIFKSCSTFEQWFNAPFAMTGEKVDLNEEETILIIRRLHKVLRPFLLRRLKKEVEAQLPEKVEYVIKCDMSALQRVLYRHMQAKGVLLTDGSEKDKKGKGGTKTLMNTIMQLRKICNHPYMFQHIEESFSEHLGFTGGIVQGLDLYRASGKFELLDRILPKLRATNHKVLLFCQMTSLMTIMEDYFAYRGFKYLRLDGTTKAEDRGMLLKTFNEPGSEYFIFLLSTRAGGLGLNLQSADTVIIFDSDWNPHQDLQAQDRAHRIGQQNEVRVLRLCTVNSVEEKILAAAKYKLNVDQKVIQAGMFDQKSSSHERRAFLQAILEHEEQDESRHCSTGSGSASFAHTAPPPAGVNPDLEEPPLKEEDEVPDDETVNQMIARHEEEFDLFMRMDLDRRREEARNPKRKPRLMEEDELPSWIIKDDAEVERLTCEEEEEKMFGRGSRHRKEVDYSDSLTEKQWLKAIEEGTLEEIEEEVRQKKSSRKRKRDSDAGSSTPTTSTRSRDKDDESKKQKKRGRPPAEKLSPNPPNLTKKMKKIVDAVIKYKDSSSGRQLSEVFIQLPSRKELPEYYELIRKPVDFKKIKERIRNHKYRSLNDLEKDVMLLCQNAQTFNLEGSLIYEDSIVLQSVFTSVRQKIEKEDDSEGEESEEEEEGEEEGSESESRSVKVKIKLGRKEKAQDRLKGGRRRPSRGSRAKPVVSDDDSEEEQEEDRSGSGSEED
UniProt Q96GM5: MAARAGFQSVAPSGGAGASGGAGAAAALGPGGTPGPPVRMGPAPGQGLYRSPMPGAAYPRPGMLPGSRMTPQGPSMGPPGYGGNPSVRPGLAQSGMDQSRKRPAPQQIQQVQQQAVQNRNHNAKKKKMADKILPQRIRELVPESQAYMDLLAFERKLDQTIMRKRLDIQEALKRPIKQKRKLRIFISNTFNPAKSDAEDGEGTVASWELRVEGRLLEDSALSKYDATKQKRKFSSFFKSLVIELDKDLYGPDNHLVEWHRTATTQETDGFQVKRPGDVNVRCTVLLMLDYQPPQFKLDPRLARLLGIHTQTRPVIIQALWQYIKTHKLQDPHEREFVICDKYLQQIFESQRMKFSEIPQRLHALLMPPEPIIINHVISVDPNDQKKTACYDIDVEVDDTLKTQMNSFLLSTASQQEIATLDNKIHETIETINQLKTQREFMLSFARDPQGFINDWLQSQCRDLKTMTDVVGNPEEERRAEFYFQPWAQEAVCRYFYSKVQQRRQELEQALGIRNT

[1] = molecular target: BRG1 (SMARCA4) (human (endogenous in 501Mel)) (UniProt P51532); assay: co-IP; endogenous proteins in 501Mel total extract; immunoprecipitated with BRG1 or control antibody; western blot with anti-BRG1 and anti-FBXO32
[2] = molecular target: SMARCA4 (BRG1) (human (endogenous in SKmel28 and 501Mel)) (UniProt P51532); assay: co-IP; endogenous proteins in 501Mel cells, immunoprecipitation with anti-BRG1 antibody

**Q.** How did the binding (Myc/DDK tagged FBXO32) turn out when “SMARCA4 (BRG1) (from UniProt P51532 1-1647)” was run?
**A.** binds

**Q.** For “SMARCD1 (BAF60a) (from UniProt Q96GM5 1-515)”, which binding (Myc/DDK tagged FBXO32) is on record?
**A.** binds

B1: FBXO32 (protein, UniProt Q969P5 1-355)
chain: MPFLGQDWRSPGQNWVKTADGWKRFLDEKSGSFVSDLSSYCNKEVYNKENLFNSLNYDVAAKKRKKDMLNSKTKTQYFHQEKWIYVHKGSTKERHGYCTLGEAFNRLDFSTAILDSRRFNYVVRLLELIAKSQLTSLSGIAQKNFMNILEKVVLKVLEDQQNIRLIRELLQTLYTSLCTLVQRVGKSVLVGNINMWVYRMETILHWQQQLNNIQITRPAFKGLTFTDLPLCLQLNIMQRLSDGRDLVSLGQAAPDLHVLSEDRLLWKKLCQYHFSERQIRKRLILSDKGQLDWKKMYFKLVRCYPRKEQYGDTLQLCKHCHILSWKGTDHPCTANNPESCSVSLSPQDFINLFKF
**Q.** Which binding [1] does the source give for B1 here?
**A.** binds

B2: FBXO32 (endogenous) (protein, UniProt Q969P5 1-355)
chain: MPFLGQDWRSPGQNWVKTADGWKRFLDEKSGSFVSDLSSYCNKEVYNKENLFNSLNYDVAAKKRKKDMLNSKTKTQYFHQEKWIYVHKGSTKERHGYCTLGEAFNRLDFSTAILDSRRFNYVVRLLELIAKSQLTSLSGIAQKNFMNILEKVVLKVLEDQQNIRLIRELLQTLYTSLCTLVQRVGKSVLVGNINMWVYRMETILHWQQQLNNIQITRPAFKGLTFTDLPLCLQLNIMQRLSDGRDLVSLGQAAPDLHVLSEDRLLWKKLCQYHFSERQIRKRLILSDKGQLDWKKMYFKLVRCYPRKEQYGDTLQLCKHCHILSWKGTDHPCTANNPESCSVSLSPQDFINLFKF
**Q.** How did the binding [2] turn out when B2 was run?
**A.** binds

Source: article PMC8184796
